In publication PMC6859486:
No constants are given. Whether binding was seen depends on the method and setting. In cells and extracts the contact can be indirect. A yes stands for co-enrichment or nearness to the bait. Other partners may have been found. For some assays here: A no says only that the protein was not detected with the bait. For some assays here: Where a sequence is shown, tags or fusion partners need not be part of it. Values belong to the molecule of their own block, whether it stands above or below them.

By UniProt entry, the sequences of proteins in these tests, tags left out. Residues count along the entry.
UniProt Q8R035, residues 30-206: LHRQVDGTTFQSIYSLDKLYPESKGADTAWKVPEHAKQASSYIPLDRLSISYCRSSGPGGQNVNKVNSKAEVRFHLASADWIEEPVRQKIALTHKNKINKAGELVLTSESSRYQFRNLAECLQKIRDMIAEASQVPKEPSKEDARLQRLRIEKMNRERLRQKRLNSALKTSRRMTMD
UniProt Q91YJ5, residues 30-727: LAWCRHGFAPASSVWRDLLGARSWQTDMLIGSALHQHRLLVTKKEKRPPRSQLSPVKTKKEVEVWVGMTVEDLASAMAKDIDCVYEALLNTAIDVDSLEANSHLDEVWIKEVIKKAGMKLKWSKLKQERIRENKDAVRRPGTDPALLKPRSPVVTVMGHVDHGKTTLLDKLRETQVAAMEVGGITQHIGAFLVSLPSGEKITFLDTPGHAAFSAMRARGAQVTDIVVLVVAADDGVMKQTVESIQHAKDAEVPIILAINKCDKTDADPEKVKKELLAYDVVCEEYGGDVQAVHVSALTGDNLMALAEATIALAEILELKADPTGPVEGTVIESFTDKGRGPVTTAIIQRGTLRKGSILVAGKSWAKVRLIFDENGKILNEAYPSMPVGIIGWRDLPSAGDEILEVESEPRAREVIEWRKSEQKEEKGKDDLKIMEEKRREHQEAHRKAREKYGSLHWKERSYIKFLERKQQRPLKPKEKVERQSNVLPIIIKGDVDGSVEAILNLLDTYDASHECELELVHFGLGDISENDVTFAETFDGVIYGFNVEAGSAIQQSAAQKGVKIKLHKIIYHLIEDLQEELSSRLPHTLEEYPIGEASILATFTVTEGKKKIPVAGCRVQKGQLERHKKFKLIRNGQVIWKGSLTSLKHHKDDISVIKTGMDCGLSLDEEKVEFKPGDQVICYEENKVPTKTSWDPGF
UniProt Q9CWV0: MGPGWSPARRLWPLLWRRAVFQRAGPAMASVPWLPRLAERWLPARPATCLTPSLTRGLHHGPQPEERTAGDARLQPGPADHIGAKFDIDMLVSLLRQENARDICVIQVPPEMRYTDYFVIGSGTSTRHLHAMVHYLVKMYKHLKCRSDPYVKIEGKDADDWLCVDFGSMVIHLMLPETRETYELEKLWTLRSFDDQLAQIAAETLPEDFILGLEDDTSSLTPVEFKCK
UniProt Q3V3R1, residues 32-977: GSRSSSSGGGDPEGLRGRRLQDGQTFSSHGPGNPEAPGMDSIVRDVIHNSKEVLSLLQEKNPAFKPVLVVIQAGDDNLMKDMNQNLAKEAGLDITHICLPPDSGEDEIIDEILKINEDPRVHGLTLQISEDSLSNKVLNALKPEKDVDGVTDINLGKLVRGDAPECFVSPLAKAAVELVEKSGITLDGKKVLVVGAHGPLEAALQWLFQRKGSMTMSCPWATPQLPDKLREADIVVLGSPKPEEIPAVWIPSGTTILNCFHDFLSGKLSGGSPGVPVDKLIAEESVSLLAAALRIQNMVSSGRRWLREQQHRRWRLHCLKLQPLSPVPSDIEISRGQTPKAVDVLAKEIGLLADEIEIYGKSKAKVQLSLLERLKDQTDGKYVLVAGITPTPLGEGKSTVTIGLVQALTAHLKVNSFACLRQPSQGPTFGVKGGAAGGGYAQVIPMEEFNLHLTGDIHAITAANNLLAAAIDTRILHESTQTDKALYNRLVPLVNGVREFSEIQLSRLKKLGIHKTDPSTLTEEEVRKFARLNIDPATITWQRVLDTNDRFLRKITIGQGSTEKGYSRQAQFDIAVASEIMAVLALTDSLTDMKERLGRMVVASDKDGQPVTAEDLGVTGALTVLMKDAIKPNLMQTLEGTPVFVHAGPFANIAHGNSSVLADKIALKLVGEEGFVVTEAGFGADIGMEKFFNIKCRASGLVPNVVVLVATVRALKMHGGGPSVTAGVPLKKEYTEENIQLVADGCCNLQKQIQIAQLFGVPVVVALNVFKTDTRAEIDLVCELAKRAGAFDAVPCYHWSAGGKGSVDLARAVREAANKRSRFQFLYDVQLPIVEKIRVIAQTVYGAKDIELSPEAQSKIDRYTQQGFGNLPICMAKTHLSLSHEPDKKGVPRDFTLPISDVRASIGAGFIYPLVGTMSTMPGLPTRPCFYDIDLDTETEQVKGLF
UniProt A4D1E9: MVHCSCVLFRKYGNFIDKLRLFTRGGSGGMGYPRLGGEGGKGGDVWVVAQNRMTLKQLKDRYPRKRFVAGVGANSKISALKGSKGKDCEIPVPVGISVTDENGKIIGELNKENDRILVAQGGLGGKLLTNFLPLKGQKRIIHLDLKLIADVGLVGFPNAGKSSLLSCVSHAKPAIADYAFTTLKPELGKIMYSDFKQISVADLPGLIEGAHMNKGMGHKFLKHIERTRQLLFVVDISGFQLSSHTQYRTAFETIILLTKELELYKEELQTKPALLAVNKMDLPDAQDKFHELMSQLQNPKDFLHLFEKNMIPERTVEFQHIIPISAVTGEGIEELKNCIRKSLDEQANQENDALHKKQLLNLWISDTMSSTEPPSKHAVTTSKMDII

Tests used:
mL62-FLAG (mouse) [1] = target: mL62-FLAG (mouse) (UniProt Q8R035); experiment: affinity purification with mass spectrometry; mL62-FLAG co-immunoprecipitated from digitonin lysates of heart mitochondria of 18- to 20-week-old Mterf4 knockout MitoRibo-Tag mice (L/L, +/Cre, T/T) versus control MitoRibo-Tag mice (L/L, +/+, T/T); LFQ-MS/MS
PUSL1-FLAG = target: T1, PUSL1-FLAG (UniProt Q8N0Z8); experiment: affinity purification with mass spectrometry; PUSL1-FLAG co-immunoprecipitated from mitochondria of HEK293T cells lysed with 3% digitonin, Mito-GFP cells as control; LFQ-MS/MS
T1 sequence: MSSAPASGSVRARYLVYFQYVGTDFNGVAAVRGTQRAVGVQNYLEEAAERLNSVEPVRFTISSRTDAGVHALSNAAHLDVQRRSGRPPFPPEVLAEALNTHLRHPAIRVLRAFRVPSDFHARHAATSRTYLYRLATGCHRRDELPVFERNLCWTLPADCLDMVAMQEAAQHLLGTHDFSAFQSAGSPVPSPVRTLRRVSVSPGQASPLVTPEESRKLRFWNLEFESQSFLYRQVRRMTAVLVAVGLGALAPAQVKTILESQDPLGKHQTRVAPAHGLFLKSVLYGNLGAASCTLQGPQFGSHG

mL62-FLAG (mouse) [2] = target: mL62-FLAG (mouse) (UniProt Q8R035); experiment: affinity purification with mass spectrometry; mL62-FLAG co-immunoprecipitated on anti-FLAG M2 beads from 1% digitonin lysates of heart, liver and kidney mitochondria of MitoRibo-Tag mice, WT mice as control; 10 mM Tris-HCl pH 7.5, 100 mM KCl, 20 mM MgCl2; on-bead trypsin elution; LFQ-MS/MS

binding (mL62-FLAG (mouse) [2]): binds
binding (mL62-FLAG (mouse) [1]): binds
Molecule: mitochondrial translation initiation factor IF2mt (from UniProt Q91YJ5 30-727)

binding (mL62-FLAG (mouse) [2]): binds
binding (mL62-FLAG (mouse) [1]): binds
Molecule: mitochondrial assembly of ribosomal large subunit 1 (from UniProt Q9CWV0 1-228)

binding (mL62-FLAG (mouse) [2]): binds
binding (mL62-FLAG (mouse) [1]): binds
B1: mitochondrial rRNA methyltransferase MRM3 (protein, UniProt Q5ND52 41-418)
chain: LSPSGQVEERKRAPDQQPRKAVPKASSQGQRQKQPLETSPSQTPHTWEEAGLRYDKAFPGDRRLSSVMTIVKSRPFREKQGKILLEGRRLIADALKAGAVPKAFFFSRLEYVKELPVDKLKDVSLIKVKFEDIKDWSDLVTPQGIMGIFAKPDPVKMTYPETPLHHTLPLVLICDNLRDPGNLGTILRSAAGAGCSKVLLTKGCVDAWEPKVLRAGMGAHFQVPIVNNVEWETVPNHLPPDTRVYVADNCGHYAQVQMSDKTGDRDWACDRRFLKFHKYEEDLDTKTRKDWLPKLEVQSYDLDWTGAPAAVVIGGETHGVSLESLQLAESTGGKRLLIPVVPGVDSLNSAMAASILLFEGKRQLRIKVEDLSRDRSYH

binding (mL62-FLAG (mouse) [2]): binds
binding (mL62-FLAG (mouse) [1]): binds
B2: RNA pseudouridylate synthase domain-containing protein 4 (protein, UniProt Q9CWX4 47-377)
chain: AEKLRAQKQEQKAKEVRVPTNPVQRRVQELVRFTQQLQRVHPNVLAKELSRRILHQDNDLVVINKPYGLPVHGGPGVQLCISDVLPILAKMLHGHKAEPLHLCHRLDKETTGVMVLAWEKDMAHQVQELFRTRQVEKKYWAITVRVPLPSAGVVDIPIKEKEVQGPQQHHKMTLSPSYRLDNGKMVKVRASRDAHVAVTQYQVLSSASSSALVELQPVTGIKHQLRVHLSFGLDCPILGDHKYSDWTRLAPQKLSAGTLKKLGLQQSKARYIPLHLHARQLILPALGSRTEELLLTCKLPHFFARSLLRLGLDMPNQDQSRGNKARHVEAR

binding (mL62-FLAG (mouse) [1]): binds
B5: pseudouridine synthase-like 1 (mouse, endogenous) (protein, UniProt A2ADA5 1-291)
chain: MGSCGAVGSVRARYLVFLQYLGTDFNGVAAVRGNPRAVGVLNFLEEAAKRLNSVDPVRFTISSRTDAGVHALSNAAHLDIQRRPGQSPFSPEVVAKALNTHLKHPAIRVLKAFRVPNDFHARHAATSRTYQYRLATGCSWPNQLPVFEQNVCWALQTEYLDMAAMQEAAQHLLGTHDFSAFQSAGSPVTNTVRTLRRVSVSPGPASPFVLPEGSRRLQFWTLEFESQSFLYRQVRRMTAVLVAVGLGILAPTQVKVILESQDPLGKYQARVAPARGLFLKSVLYDNFGPTS

binding (mL62-FLAG (mouse) [1]): binds
B7: mitochondrial ribosome-binding factor A (protein, UniProt Q6P3B9 42-350)
chain: GSKNLLKKFASKTRKKFWYEGPSLGSHLTPRPSKHEFLTKTTSKKTRKEDSIRLRVLNGLLYKSLTELLCTPQVSQEVYDLNVELSKVSVTSDFSACRVYWKTGVSAEQNKHTESVLQRSAAYMRHLLISQQTLRNVPPIVFVQDKRDLVLAEVDRLLAEADFGPPDERDDLDGLRNADAQVPHDSPEPAAHPNLCGIDHEALNKQIMEYKRKKERGLQCQSLAPPSGREQAPEPTRLLRKREKVRSRWQHRDASPRSFLLGEEDEDEDSSTEWECHAHEAEDDDDHQEEELGADRGAQRGLCGKREQG

binding (PUSL1-FLAG): binds
B10: NOA1 (human, endogenous) (protein, UniProt Q8NC60 1-698)
chain: MLPARLPFRLLSLFLRGSAPTAARHGLREPLLERRCAAASSFQHSSSLGRELPYDPVDTEGFGEGGDMQERFLFPEYILDPEPQPTREKQLQELQQQQEEEERQRQQRREERRQQNLRARSREHPVVGHPDPALPPSGVNCSGCGAELHCQDAGVPGYLPREKFLRTAEADGGLARTVCQRCWLLSHHRRALRLQVSREQYLELVSAALRRPGPSLVLYMVDLLDLPDALLPDLPALVGPKQLIVLGNKVDLLPQDAPGYRQRLRERLWEDCARAGLLLAPGHQGPQRPVKDEPQDGENPNPPNWSRTVVRDVRLISAKTGYGVEELISALQRSWRYRGDVYLVGATNAGKSTLFNTLLESDYCTAKGSEAIDRATISPWPGTTLNLLKFPICNPTPYRMFKRHQRLKKDSTQAEEDLSEQEQNQLNVLKKHGYVVGRVGRTFLYSEEQKDNIPFEFDADSLAFDMENDPVMGTHKSTKQVELTAQDVKDAHWFYDTPGITKENCILNLLTEKEVNIVLPTQSIVPRTFVLKPGMVLFLGAIGRIDFLQGNQSAWFTVVASNILPVHITSLDRADALYQKHAGHTLLQIPMGGKERMAGFPPLVAEDIMLKEGLGASEAVADIKFSSAGWVSVTPNFKDRLHLRGYTPEGTVLTVRPPLLPYIVNIKGQRIKKSVAYKTKKPPSLMYNVRKKKGKINV

Continued, molecule first:

Molecule: MTHFD1L (from UniProt Q3V3R1 32-977) (enzyme)
binding (mL62-FLAG (mouse) [1]): no binding

Molecule: GTPBP10 (human, endogenous) (from UniProt A4D1E9 1-387)
binding (PUSL1-FLAG): binds

B3: Era-like 12S rRNA chaperone 1 (protein, UniProt Q9CZU4 21-437)
chain: VGSHAGREWLAPPGCLLGNQARCVSCVVGSTFSGPLLASASSRYGQDSALDRILGFSQPDSSLVPSVPAVSVHRDEQNLLLVHTPDMPENPRVLRVVLLGAPNAGKSTLSNQLLGRKVFPVSKKVHTTRCQALGVITEKETQVILLDTPGIISPVKQKRHHLERSLLEDPWTSMESADLVVVLVDVSDKWTRSRLNPQVLQCLTKFSQVPSILVLNKVDCLKQKSVLLELTAALTEGVVNGKKLNIKQALRSRSSTHCPGPETEGPNAHSVRNPQRIGWPYFQEIFMLSALNNKDVNTLKQYLLTQAQPGPWEFHSGVLTSQTPEEICANKIREKLLEYLPEEVPYGVQQKTVIWEEGPSGELVIQQNLLVPKESHVRILIGQKGLLISQIAQEVGRDLMDIFHCDVLIRLSVKLLK
binding (mL62-FLAG (mouse) [1]): binds

B4: MTHFD2 (enzyme, UniProt P18155 36-350)
chain: EAVVISGRKLAQQIKQEVQQEVEEWVASGNKRPHLSVILVGDNPASHSYVLNKTRAAAEVGINSETIVKPASVSEEELLNSIRKLNNDENVDGLLVQLPLPEHIDERKVCNAVSPDKDVDGFHVINVGRMCLDQYSMLPATPWGVWEIIKRTGIPTLGKNVVVAGRSKNVGMPIAMLLHTDGAHERPGGDATVTISHRYTPKEQLKKHTILADIVISAAGIPNLITADMIKEGAAVIDVGINRVQDPVTAKPKLVGDVDFEGVKKKAGYITPVPGGVGPMTVAMLMKNTIIAAKKVLRPEELEVFKSKQRGVATN
binding (mL62-FLAG (mouse) [1]): no binding

B6: GTP-binding protein 10 (mouse, endogenous) (protein, UniProt Q8K013 1-366)
chain: MVRCGCALLRKYGNFIDNLRIFTKGGSGGMGYPRLGGEGGRGGDVWVVAHKNMTLKQLKNKYPQKRFVAGGGANSRVSALQGSKGKDCEVPAPVGISVTDENGQVLGELNKEEDRVLVAKGGLGGKLHTNFLPLKGQKRIVHLDLKVIADVGLVGFPNAGKSSLLSRVSHATPVIADYAFTTLRPELGKIMYNDFKQISVADLPGLIEGAHMNKGMGHKFLKHLERTRQLLFVVDISGFQLSSVTPYRTAFETIILLTKELELYKEELQTKPALLAINKMDLPDAQVKLQELMKQLLSPEDFLHLFETKMIPEKALEFQHIVPISTVTGEGIAELKSCIRKALDEQDGKESDAHRSKQLLNLQSSS
binding (mL62-FLAG (mouse) [2]): binds
binding (mL62-FLAG (mouse) [1]): binds

B8: DEAD-box RNA helicase 28 (protein, UniProt Q9CWT6 1-540)
chain: MALAGPSRLLALAVRLLLEPRRNLVVRGSDQSLPVVRVPRALQRRQEQRQSGRGSLQRPVLVRPGPLLVSARRPELNQPARLTLGRWERAPLASRGWKHRRSRQDHFSIERVQQEAPALRNLSSRGSFVDLGLEPRVLLALQEAVPEVVQPTSVQSKTIPPLLRGRHLLCAAETGSGKTLSYLLPLFQRLLRGSDLDSRSFTAPRGLVLVPSRELAEQVQAVAQSLGGYLGLQVIELGGGLGMSRLKLQLYRRPAADVLVATPGALWKALKSQLISLQHLNFIVLDEVDTLLDESFLELVDYILEKSPIAESPAELEDPFNPKAQLVLVGATFPEGLNQLLSKVTSPDSLTTITSSKLHCLMPHVRQTFMRLKGADKVTELVQILKQQDKASKTEPSGTVLVFCNSASTVNWLGYILDDHKIQHLRLQGQMPASMRAGIFQSFQKGSQNILVCTDIASRGLDSVHVEVVINYDFPPTLQDYIHRAGRVGRVGSEVPGSVISFVTHPWDVSLVQKIELAARRRRSLPGLASSVGDPLPQKA
binding (mL62-FLAG (mouse) [2]): binds
binding (mL62-FLAG (mouse) [1]): binds

B9: MTERF4 (human, endogenous) (protein, UniProt Q7Z6M4 43-381)
chain: LTTASNGGVIEELSCVRSNNYVQEPECRRNLVQCLLEKQGTPVVQGSLELERVMSSLLDMGFSNAHINELLSVRRGASLQQLLDIISEFILLGLNPEPVCVVLKKSPQLLKLPIMQMRKRSSYLQKLGLGEGKLKRVLYCCPEIFTMRQQDINDTVRLLKEKCLFTVQQVTKILHSCPSVLREDLGQLEYKFQYAYFRMGIKHPDIVKSEYLQYSLTKIKQRHIYLERLGRYQTPDKKGQTQIPNPLLKDILRVSEAEFLARTACTSVEEFQVFKKLLAREEEESESSTSDDKRASLDEDEDDDDEEDNDEDDNDEDDDDEDDDEAEDNDEDEDDDEEE
binding (PUSL1-FLAG): binds
